In article PMC7255605:
No constants are given. Whether binding was seen depends on the method and setting. For part of these data: A result given as binding can be weak or reduced; the word gives no strength. For part of these data: Tags and fused reporters may be left off the sequences shown. For part of these data: In cells and extracts the contact can be indirect.

Legend:
[1] = target: T1, Leishmania donovani PCNA (endogenous) (Leishmania donovani (endogenous in promastigotes)) (UniProt B5TV91); assay: co-IP; PCNA immunoprecipitated with anti-PCNA antibodies on protein A sepharose from DNaseI-treated whole cell lysates of logarithmically growing transfectant promastigotes, overnight at 4°C; blot with anti-FLAG
T1 sequence: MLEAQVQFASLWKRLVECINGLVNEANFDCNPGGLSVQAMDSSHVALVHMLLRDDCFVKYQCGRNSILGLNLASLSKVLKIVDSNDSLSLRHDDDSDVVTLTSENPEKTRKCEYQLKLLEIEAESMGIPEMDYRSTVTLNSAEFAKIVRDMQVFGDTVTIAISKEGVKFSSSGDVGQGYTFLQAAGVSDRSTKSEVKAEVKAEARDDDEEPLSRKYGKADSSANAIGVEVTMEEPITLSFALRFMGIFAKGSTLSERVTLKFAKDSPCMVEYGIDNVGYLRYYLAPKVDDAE

[2] = target: T2, recombinant His-tagged Leishmania PCNA (Leishmania donovani) (UniProt B5TV91); assay: pull-down; 25 pmoles purified His-tagged PCNA (trimeric) incubated with 130-145 μg E. coli extract holding the overexpressed MBP-Cdc45(481-785) protein in 1X PBS, 2 h at 4°C; pulled down on cobalt (Talon) beads; wash 100 mM Tris.Cl pH 8, 750 mM NaCl; Coomassie and anti-MBP blot; only the target purified
T2 sequence: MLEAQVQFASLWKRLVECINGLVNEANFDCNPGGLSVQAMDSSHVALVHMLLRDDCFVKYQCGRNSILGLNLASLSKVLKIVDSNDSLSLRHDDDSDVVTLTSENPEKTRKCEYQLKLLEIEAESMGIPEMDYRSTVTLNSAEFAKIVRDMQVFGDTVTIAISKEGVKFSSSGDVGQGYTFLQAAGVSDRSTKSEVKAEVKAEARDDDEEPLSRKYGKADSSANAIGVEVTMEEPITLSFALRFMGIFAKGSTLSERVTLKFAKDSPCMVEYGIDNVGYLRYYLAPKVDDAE

[3] = target: T2, recombinant His-tagged Leishmania PCNA (Leishmania donovani); assay: condition: 25 pmoles of purified PCNA (trimeric protein) in 500 μl; pull-down; 25 pmoles purified His-tagged PCNA (trimeric) incubated with 130-145 μg E. coli extract holding the overexpressed MBP-Cdc45(481-785) protein in 1X PBS, 2 h at 4°C; pulled down on cobalt (Talon) beads; wash 100 mM Tris.Cl pH 8, 750 mM NaCl; Coomassie and anti-MBP blot; only the target purified
[4] = target: MBP-Cdc45-PIP(481-785) (Leishmania donovani); assay: pull-down; MBP-tagged protein immobilised on amylose resin, washed extensively (1 M NaCl) to remove E. coli contaminants, incubated with purified His-tagged PCNA (12.5 μg) 2 h at 4°C; wash 750 mM NaCl; eluted with 10 mM maltose; Coomassie and blot; both purified
[5] = target: MBP-Cdc45(481-785) (Leishmania donovani); assay: as above

Question: Leishmania donovani Cdc45-FLAG was tested. Which binding [1] did it give?
Answer: binds

Question: With “Leishmania donovani Cdc45-PIP-FLAG (PIP box mutant)” as the molecule, how does the binding [1] read?
Answer: no binding

Question: How did the binding [2] turn out when “MBP-Cdc45(481-785) (Leishmania donovani) (domain or fragment)” was run?
Answer: binds

Question: How did the binding [3] turn out when “MBP-Cdc45-PIP(481-785) (Leishmania donovani) (domain or fragment)” was run?
Answer: no binding

B1: recombinant His-tagged Leishmania PCNA (protein, UniProt B5TV91 1-292)
chain: MLEAQVQFASLWKRLVECINGLVNEANFDCNPGGLSVQAMDSSHVALVHMLLRDDCFVKYQCGRNSILGLNLASLSKVLKIVDSNDSLSLRHDDDSDVVTLTSENPEKTRKCEYQLKLLEIEAESMGIPEMDYRSTVTLNSAEFAKIVRDMQVFGDTVTIAISKEGVKFSSSGDVGQGYTFLQAAGVSDRSTKSEVKAEVKAEARDDDEEPLSRKYGKADSSANAIGVEVTMEEPITLSFALRFMGIFAKGSTLSERVTLKFAKDSPCMVEYGIDNVGYLRYYLAPKVDDAE
Question: Which results are given for B1?
Answer: binding [4]: no binding (tested: 12.5 μg purified PCNA); binding [5]: binds
